{
  "source": "patent US20090318371A1",
  "about": "(priority 2006, published 2009)",
  "origin": "cited, not measured here",
  "settings": "long term studies in animals",
  "data": [
    {"smiles": "CCC[C@@H]1C[C@@H](C(=O)N[C@@H]([C@H]2O[C@H](SC)[C@H](O)[C@@H](O)[C@H]2O)[C@H](C)Cl)N(C)C1", "note": "[Clindamycin]", "values": [
      {"measurement": "Carcinogenesis, mutagenesis, teratogenesis effects and effects on fertility", "value": "without developing carcinogenesis, mutagenesis, teratogenesis effects nor on fertility"}
    ]}
  ]
}
